From patent US20120035201A1, “SPIROHETEROCYCLIC PYRROLIDINE DIONE DERIVATIVES USED AS PESTICIDES” (SYNGENTA CROP PROTECTION LLC, priority 2009, published 2012)
Some entries share one result that the patent states for a list of compounds.

Assays:
Meloidogyne incognita = experiment: Example B14: activity against Meloidogyne incognita, cucumber pouch test (contact); assay type: in vivo; conditions: 400 ppm, 12 days
[1] = tested on: Frankliniella occidentalis (western flower thrips); experiment: Example B6: activity against Frankliniella occidentalis, bean leaf discs or bean plants; assay type: in vivo; conditions: 400 ppm; 6 days (leaf discs) or 14 days (plants)

**Q.** How did the “activity (gall reduction in the root mass)” value (Meloidogyne incognita) turn out when CON1CCC2(CC1)NC(=O)C(Cl)(c1cc(C)ccc1C)C2=O (stereo not drawn) [A1, 3-chloro-3-(2,5-dimethyl-phenyl)-8-methoxy-1,8-diaza-spiro[4.5]decane-2,4-dione] was run?
**A.** Its value is “over 80%”.

**Q.** How did the “activity (gall reduction in the root mass)” value (Meloidogyne incognita) turn out when CON1CCC2(CC1)NC(=O)C(F)(c1cc(C)ccc1C)C2=O (stereo not drawn) [A2, 3-(2,5-dimethyl-phenyl)-3-fluoro-8-methoxy-1,8-diaza-spiro[4.5]decane-2,4-dione] was run?
**A.** Its value is “over 80%”.

**Q.** What about the “activity (reduction of treated population)” value [1] of the same compound?
**A.** Its value is “over 80%”.
